Results deposited as PubChem BioAssay AID1224828 (NIAID, 2016)
Screen: 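Regulators linking TLR4 signalling to p65 nuclear translocation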 (primary screen). System: mouse RAW264.7 G9 macrophage reporter cells (GFP-p65, Tnf promoter-mCherry). Knock-down reagent: siRNA pool against mouse genes, 100 nM. Duration: 2 days siRNA transfection, then 40 min LPS before fixation. Conditions: LPS (Salmonella minnesota R595) at 10 ng/ml. Read-out: 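Imaged p65 nuclear translocation ratio, normalised to the plate median, converted to robust z-scores and averaged across two replicates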. Scale: p65 translocation robust z-score: higher = more nuclear NF-kappaB p65 after LPS than the plate median; nuclear/cytoplasmic p65 ratio: higher = more nuclear NF-kappaB p65. Active means: 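Called active when z exceeds 3.3 or falls under -1.56 (median of Tlr4 controls), giving activity score of at least 50; no calls for control wells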. Calls: active = hit (p65 shift raised or lowered); inactive = no clear change.
This is an unselected part of about 17,000 reagents tested. Of all reagents, 762 (4.5%) got an active call. 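Active calls include both raised and lowered p65 entry, mostly lowered; wells with fewer than 50 cells lack a z-score.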 The raw values are shown without normalisation.

Silencing of Mettl16 (GeneID 67493) came out at: p65 translocation robust z-score -1.4; nuclear/cytoplasmic p65 ratio, rep 1 = 1.26; nuclear/cytoplasmic p65 ratio, rep 2 = 1.27; low cell count flag enough cells to score; inactive.
Knock-down of Or4c11c (GeneID 258898) resulted in: p65 translocation robust z-score 0.72; nuclear/cytoplasmic p65 ratio, rep 1 = 1.82; nuclear/cytoplasmic p65 ratio, rep 2 = 1.64; low cell count flag enough cells to score; inactive.
With knock-down of Zhx2 (GeneID 387609) the results were p65 translocation robust z-score -1.86; nuclear/cytoplasmic p65 ratio, rep 1 = 1.22; nuclear/cytoplasmic p65 ratio, rep 2 = 1.28; low cell count flag enough cells to score; active.
With knock-down of Samt3 (GeneID 73495), the record shows p65 translocation robust z-score -0.61; nuclear/cytoplasmic p65 ratio, rep 1 = 1.35; nuclear/cytoplasmic p65 ratio, rep 2 = 1.34; low cell count flag enough cells to score; inactive.
Against Tgfbr2 (GeneID 21813) the deposit lists p65 translocation robust z-score 1.06; nuclear/cytoplasmic p65 ratio, rep 1 = 1.89; nuclear/cytoplasmic p65 ratio, rep 2 = 1.52; low cell count flag enough cells to score; inactive.
Pitpnm1 (GeneID 18739) gave p65 translocation robust z-score 0.6; nuclear/cytoplasmic p65 ratio, rep 1 = 1.52; nuclear/cytoplasmic p65 ratio, rep 2 = 1.23; low cell count flag enough cells to score; inactive.
Silencing of Uaca (GeneID 72565) came out at: p65 translocation robust z-score -0.04; nuclear/cytoplasmic p65 ratio, rep 1 = 1.34; nuclear/cytoplasmic p65 ratio, rep 2 = 1.22; low cell count flag enough cells to score; inactive.
Slc26a10 (GeneID 216441) showed p65 translocation robust z-score 1.72; nuclear/cytoplasmic p65 ratio, rep 1 = 1.82; nuclear/cytoplasmic p65 ratio, rep 2 = 2.09; low cell count flag enough cells to score; inactive.
For Or5ak24 (GeneID 258425), the entry reads p65 translocation robust z-score -2.06; nuclear/cytoplasmic p65 ratio, rep 1 = 1.16; nuclear/cytoplasmic p65 ratio, rep 2 = 1.08; low cell count flag enough cells to score; active.
After knock-down of Cgb (retired record) (GeneID 94225), the screen gave p65 translocation robust z-score 0.48; nuclear/cytoplasmic p65 ratio, rep 1 = 1.63; nuclear/cytoplasmic p65 ratio, rep 2 = 1.9; low cell count flag enough cells to score; inactive.
For C3ar1 (GeneID 12267) the deposit lists p65 translocation robust z-score -1.85; nuclear/cytoplasmic p65 ratio, rep 1 = 1.29; nuclear/cytoplasmic p65 ratio, rep 2 = 1.27; low cell count flag enough cells to score; active.
Rps4l (GeneID 66184) gave p65 translocation robust z-score -1.73; nuclear/cytoplasmic p65 ratio, rep 1 = 1.26; nuclear/cytoplasmic p65 ratio, rep 2 = 1.25; low cell count flag enough cells to score; active.
After knock-down of Nrbp1 (GeneID 192292), the record shows p65 translocation robust z-score -1.8; nuclear/cytoplasmic p65 ratio, rep 1 = 1.31; nuclear/cytoplasmic p65 ratio, rep 2 = 1.22; low cell count flag enough cells to score; active.
Against Dclre1a (GeneID 55947), the entry reads p65 translocation robust z-score 0.31; nuclear/cytoplasmic p65 ratio, rep 1 = 1.52; nuclear/cytoplasmic p65 ratio, rep 2 = 1.4; low cell count flag enough cells to score; inactive.
Against Kdm5d (GeneID 20592), the values are p65 translocation robust z-score 0.53; nuclear/cytoplasmic p65 ratio, rep 1 = 1.69; nuclear/cytoplasmic p65 ratio, rep 2 = 1.45; low cell count flag enough cells to score; inactive.
Adgra2 (GeneID 78560) gave p65 translocation robust z-score 0.36; nuclear/cytoplasmic p65 ratio, rep 1 = 1.54; nuclear/cytoplasmic p65 ratio, rep 2 = 1.65; low cell count flag enough cells to score; inactive.
Knock-down of Sstr4 (GeneID 20608) resulted in: p65 translocation robust z-score 0.22; nuclear/cytoplasmic p65 ratio, rep 1 = 1.54; nuclear/cytoplasmic p65 ratio, rep 2 = 1.31; low cell count flag enough cells to score; inactive.
For Tmem108 (GeneID 81907) the deposit lists p65 translocation robust z-score -0.36; nuclear/cytoplasmic p65 ratio, rep 1 = 1.44; nuclear/cytoplasmic p65 ratio, rep 2 = 1.57; low cell count flag enough cells to score; inactive.
Sox8 (GeneID 20681) gave p65 translocation robust z-score -0.46; nuclear/cytoplasmic p65 ratio, rep 1 = 1.4; nuclear/cytoplasmic p65 ratio, rep 2 = 1.57; low cell count flag enough cells to score; inactive.
For Aurkb (GeneID 20877), the values are nuclear/cytoplasmic p65 ratio, rep 1 = 1.76; nuclear/cytoplasmic p65 ratio, rep 2 = 1.68; low cell count flag fewer than 50 cells per well; well left out of scoring; inactive.
Against Mtif3 (GeneID 76366), the values are p65 translocation robust z-score -1.05; nuclear/cytoplasmic p65 ratio, rep 1 = 1.29; nuclear/cytoplasmic p65 ratio, rep 2 = 1.32; low cell count flag enough cells to score; inactive.
